In paper PMC10301970 one finds binding data, which are given here for six molecules.

These are yes or no findings as the source states them, for the method shown. In cells and extracts the contact can be indirect. These calls come from enrichment with a bait or labelling near it, and not all partners need be listed. For some assays here: Where a sequence is shown, tags or fusion partners need not be part of it.

Experiment in all cases: affinity purification with mass spectrometry; whole-cell extracts of C. deneoformans strains expressing a FLAG-tagged bait, grown overnight in liquid YPD at 30 °C; incubated with FLAG-trap (Sigma); eluate on SDS-PAGE, digested, analysed by MS
In experiment [1] the target is T1, FLAG-tagged Set1 (C. deneoformans) (C. deneoformans) (UniProt P0CO26).
T1 sequence: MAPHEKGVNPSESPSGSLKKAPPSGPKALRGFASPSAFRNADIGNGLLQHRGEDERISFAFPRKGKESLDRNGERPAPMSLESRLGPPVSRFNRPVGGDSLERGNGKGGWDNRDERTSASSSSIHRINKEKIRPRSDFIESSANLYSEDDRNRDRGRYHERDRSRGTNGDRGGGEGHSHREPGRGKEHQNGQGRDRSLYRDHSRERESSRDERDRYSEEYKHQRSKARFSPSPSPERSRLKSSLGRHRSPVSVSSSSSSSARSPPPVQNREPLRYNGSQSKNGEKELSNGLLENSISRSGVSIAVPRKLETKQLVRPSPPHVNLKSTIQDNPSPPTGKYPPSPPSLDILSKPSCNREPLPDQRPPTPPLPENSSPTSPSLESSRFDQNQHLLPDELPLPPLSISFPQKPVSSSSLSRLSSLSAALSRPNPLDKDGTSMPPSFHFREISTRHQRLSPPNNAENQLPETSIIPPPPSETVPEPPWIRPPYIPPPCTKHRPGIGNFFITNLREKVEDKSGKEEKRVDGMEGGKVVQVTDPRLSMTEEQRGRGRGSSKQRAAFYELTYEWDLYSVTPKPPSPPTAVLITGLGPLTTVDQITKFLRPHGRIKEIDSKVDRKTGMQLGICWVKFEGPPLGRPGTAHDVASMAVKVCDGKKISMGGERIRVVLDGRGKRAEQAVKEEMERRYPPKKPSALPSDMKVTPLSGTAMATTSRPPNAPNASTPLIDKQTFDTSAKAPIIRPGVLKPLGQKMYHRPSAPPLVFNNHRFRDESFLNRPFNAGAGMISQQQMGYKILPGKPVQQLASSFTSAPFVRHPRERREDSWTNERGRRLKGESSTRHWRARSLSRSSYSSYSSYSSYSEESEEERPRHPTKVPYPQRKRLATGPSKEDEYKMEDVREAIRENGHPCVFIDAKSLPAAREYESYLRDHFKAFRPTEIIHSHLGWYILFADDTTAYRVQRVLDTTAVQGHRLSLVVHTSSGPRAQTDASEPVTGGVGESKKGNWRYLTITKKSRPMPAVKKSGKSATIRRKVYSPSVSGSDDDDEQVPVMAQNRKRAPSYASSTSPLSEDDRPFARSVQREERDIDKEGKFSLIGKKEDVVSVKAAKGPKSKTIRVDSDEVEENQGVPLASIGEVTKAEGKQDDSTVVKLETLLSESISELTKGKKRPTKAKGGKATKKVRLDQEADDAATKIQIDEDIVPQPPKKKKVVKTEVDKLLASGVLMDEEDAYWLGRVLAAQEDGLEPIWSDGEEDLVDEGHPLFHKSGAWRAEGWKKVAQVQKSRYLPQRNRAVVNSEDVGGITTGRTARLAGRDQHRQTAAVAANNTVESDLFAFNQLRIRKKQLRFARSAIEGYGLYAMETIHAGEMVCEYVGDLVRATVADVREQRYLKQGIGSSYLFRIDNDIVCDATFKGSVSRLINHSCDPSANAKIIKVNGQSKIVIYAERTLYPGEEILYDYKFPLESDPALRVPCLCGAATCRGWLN

The target in experiment [2] is FLAG-tagged Swd1 (C. deneoformans) (C. deneoformans).
The target of experiment [3] is FLAG-tagged Swd3 (C. deneoformans) (C. deneoformans).
In experiment [4] the target is FLAG-tagged Bre2 (C. deneoformans) (C. deneoformans).

On to Swd3 (C. deneoformans, endogenous), for which the binding entry in experiment [1] is reported as “binds”.
Turning to Bre2 (C. deneoformans, endogenous), the binding result in experiment [1] was “binds”.
The same measure, in the same setting: then Spp101 (C. deneoformans, endogenous), with “binds”; and Swd1 (C. deneoformans, endogenous), with “binds”; and Swd2 (C. deneoformans, endogenous), with “binds”.

B1: Set1 (C. deneoformans, endogenous) (protein, UniProt P0CO26 1-1483)
chain: T1 sequence
On to B1, for which the binding result in experiment [2], in experiment [3] and in experiment [4] was “binds” throughout.
